Reference: paper PMC8660638
Results are given in words; binding and its absence hold for the method and conditions named. Some entries that bind do so weakly or less than the wild type.

How the values were obtained:
Experiment in all cases: cryo-EM structure; Pol I EC: purified Pol I at 0.7 mg/mL with annealed DNA–RNA scaffold in 1.5 molar excess; EM buffer 15 mM HEPES pH 7.5, 80 mM (NH4)2SO4, 5 mM MgCl2, 10 mM DTT; 2.7 Å; both purified
[1] = biological target: RPA49 (human) (UniProt Q9GZS1)
[2] = biological target: RPA2 (human) (UniProt Q9H9Y6)
[3] = biological target: RPA1 (human) (UniProt O95602)

For RPA34 (from UniProt O15446 1-510), the binding [1] was “binds”.
With RPA49 (from UniProt Q9GZS1 1-419) the binding [2] was “binds” and the binding [3] was “binds”.
